This note sets out measurements from patent US7091025B2, “Malathion carboxylesterase” (priority 1995, dated 2006).

This data set relates to adult female L. cuprina. Type of data set: in vivo. An excerpt: The following organophosphorus compounds were used: diazinon (O,O-diethyl O-2-isopropyl-6-methylpyrimidin-4-yl phosphorothioate, 91%, Mallinckrodt), parathion-methyl (O,O-dimethyl O-4-nitrophenyl phosphorothioate, 97.0%, Bayer), parathion (O,O-diethyl O-4-nitrophenyl phosphorothioate, 99%, Pestanal grade, Riedel-de-Haën), fenthion (O,O-dimethyl O-[3-methyl-4-(methylthio)phenyl]phosphorothioate, 98.8%, Bayer), fenthion-ethyl (O,O-diethyl O-[3-methyl-4-(methylthio)phenyl] phosphorothioate, a gift from Dr. G. Levot), dichlorvos (2,2-dichlorovinyl dimethyl phosphate, 99%, Chem Service), diethyl-dichlorvos (2,2-dichlorovinyl diethyl phosphate, a gift from Dr. J. Desmarchelier), di-isopropyl-dichlorvos (2,2-dichlorovinyl di-isopropyl phosphate, a gift from Dr. J. Desmarchelier), malathion (S-1,2-bis(ethoxycarbonyl)ethyl O,O-dimethyl phosphorodithioate, technical grade, Nufarm), isopropyl malathion (S-1,2-bis(ethoxycarbonyl)ethyl O,O-di-isopropyl phosphorodithioate, a gift from Dr. J. Desmarchelier).
The toxicity of OPs in adult female L. cuprina was determined 3 or 4 days post-eclosion by application of OPs to the scutellum in 0.7 μl dioctylphthalate (Busvine, J. R., Bell, J. D. and Guneidy, A. M., Bulletin of Entomological Research 54: 589, 1963;; Townsend, M. G. and Busvine, J. R., Entomology Experimental and Applied 12: 243, 1969). Each OP was applied to at least 20 flies at each of at least 5 different concentrations, spanning the dose causing 50% mortality (LD50). Control groups were treated with solvent but no OP. Mortality was determined 24 hours later. Data were fitted to the probit curve using the Probit Or LOgit (POLO-PC) computer program (LeOra Software, 1987).

Where two headings read alike, the source gives them in different places.

Consider `CCOP(=S)(OCC)Oc1cc(C)nc(C(C)C)n1` [Diazinon, O,O-diethyl O-2-isopropyl-6-methylpyrimidin-4-yl phosphorothioate], for which the “slope and standard error of the probit regression line” value (“slope and standard error” for short) (strain LS2) was 3.5 ± 0.5; the “slope and standard error” value (strain Llandillo 103) is listed as 4.9 ± 0.7; the “slope and standard error” value (strain Woodside 5.2) was determined as 5.1 ± 0.6.
`COP(=O)(OC)OC=C(Cl)Cl` [Dichlorvos, 2,2-dichlorovinyl dimethyl phosphate]: the “slope and standard error” value reads like this: (strain LS2) 8.2 ± 1.1; (strain Llandillo 103) 5.1 ± 0.8; (strain Woodside 5.2) 6.3 ± 1.0.
For `CCOP(=O)(OC=C(Cl)Cl)OCC` [Ethyl Dichlorvos, 2,2-dichlorovinyl diethyl phosphate] the same measures were 5.0 ± 0.8, 54 ± 14 and 4.9 ± 1.2.
For `COP(=S)(OC)Oc1ccc(SC)c(C)c1` [Fenthion, O,O-dimethyl O-[3-methyl-4-(methylthio)phenyl]phosphorothioate] the same measures were 5.2 ± 0.7, 8.7 ± 1.5 and 3.9 ± 0.7.
`CCOP(=S)(OCC)Oc1ccc(SC)c(C)c1` [Fenthion-ethyl, O,O-diethyl O-[3-methyl-4-(methylthio)phenyl] phosphorothioate]: the “slope and standard error” value (strain LS2) was determined as 7.4 ± 1.1; the “slope and standard error” value (strain Llandillo 103) came to 8.7 ± 1.5; the “slope and standard error” value (strain Woodside 5.2) is reported as 13.4 ± 2.6.
With `CC(C)OP(=O)(OC=C(Cl)Cl)OC(C)C` [Isopropyl Dichlorvos, 2,2-dichlorovinyl di-isopropyl phosphate], the “slope and standard error” value is listed as 4.1 ± 0.6 (strain LS2), 4.1 ± 0.5 (strain Llandillo 103) and 8.1 ± 1.4 (strain Woodside 5.2).
For `CCOC(=O)CC(SP(=S)(OC(C)C)OC(C)C)C(=O)OCC` (centres unmarked) [Isopropyl Malathion, S-1,2-bis(ethoxycarbonyl)ethyl O,O-di-isopropyl phosphorodithioate] the same measures were 6.3 ± 0.7, 8.5 ± 1.7 and 10.1 ± 1.8.
Consider `CCOC(=O)CC(SP(=S)(OC)OC)C(=O)OCC` (centres unmarked) [Malathion, S-1,2-bis(ethoxycarbonyl)ethyl O,O-dimethyl phosphorodithioate], for which the “slope and standard error” value is, setting by setting: (strain LS2) 6.4 ± 1.2; (strain Llandillo 103) 4.2 ± 0.9.
With `CCOP(=S)(OCC)Oc1ccc([N+](=O)[O-])cc1` [Parathion, O,O-diethyl O-4-nitrophenyl phosphorothioate], the “slope and standard error” value (strain LS2) is on record as 9.2 ± 1.1; the “slope and standard error” value (strain Llandillo 103) amounted to 6.8 ± 1.2; the “slope and standard error” value (strain Woodside 5.2) turned out to be 13.3 ± 2.3.
For `COP(=S)(OC)Oc1ccc([N+](=O)[O-])cc1` [Parathion-methyl, O,O-dimethyl O-4-nitrophenyl phosphorothioate] the same measures were 6.5 ± 0.8, 3.4 ± 0.5 and 9.7 ± 1.5.
